These are yes or no findings as the source states them, for the method shown. In cells and extracts the contact can be indirect. Some results given as binding are weak or reduced against the parent protein; the word gives no strength.
What was measured:
Experiment in all cases: co-IP; anti-Rev7 (10 ug) covalently attached to magnetic beads, incubated with 1 mg of protein extract of the indicated KP cell line for 2 h at room temperature; eluates blotted for Ran, Trip13 and Rev7; IgG control
[1] = biological target: wild-type mouse Rev7 expressed in Rev7^-/- KP cells (mouse) (UniProt Q9D752)
[2] = biological target: Rev7 (endogenous, wild-type KP cells) (mouse (endogenous in KP cells)) (UniProt Q9D752)
[3] = biological target: Rev7^K44A/R124A/A135D (mouse) (UniProt Q9D752)

By UniProt entry, the sequences of proteins in these tests, tags left out. Where a name states a change or a piece, a line headed by the entry shows the natural chain unless it says otherwise.
UniProt Q9D752: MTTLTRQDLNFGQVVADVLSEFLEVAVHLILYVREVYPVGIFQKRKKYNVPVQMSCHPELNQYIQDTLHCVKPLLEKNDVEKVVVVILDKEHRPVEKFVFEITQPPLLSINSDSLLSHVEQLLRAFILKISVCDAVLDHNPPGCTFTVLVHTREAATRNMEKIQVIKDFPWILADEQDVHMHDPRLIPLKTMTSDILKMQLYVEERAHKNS

binding [1]: binds | binding [2]: binds | binding [3]: no binding
B1: Trip13 (protein, UniProt Q3UA06 1-432)
chain: MDEAVGDLKQALPCVAESPAVHVEVLQRSGSTAKKEDIKSSVYRLLNRHNIVFGDYVWTEFDDPFLSRNVQSVSIVDTELKAKDPQPIDLSACTIALHIFQLNEEGPSSENLDEETENIIAASHWVLPAAEFHGLWDSLVYDVEVKSHLLDYVMTTVLFSDKNVDSNLITWNRVVLLHGPPGTGKTSLCKALAQKLTIRLSSRYRYGQLIEINSHSLFSKWFSESGKLVTKMFQKIQDLIDDKEALVFVLIDEVESLTAARNACRAGAEPSDAIRVVNAVLTQIDQIKRHSNVVILTTSNITEKIDVAFVDRADIKQYIGPPSAAAIFKIYLSCLEELMKCQIIYPRQQLLTLRELEMIGFIENNVSKLSLLLSEISRKSEGLSGRVLRKLPFLAHALYIQAPSVTIEGFLQALSLAVDKQFEEKKKLSAYV

— article PMC10649693
